# Measurements from the supplement of paper PMC4635364.
# Where a name gives a salt, the structure may show the parent alone. The list shows a part of the results. Repeats in this data set agree poorly, so a single value says little.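 ReNCell VM, a human fetal ventral-midbrain neural progenitor line, was differentiated without mitogens. Blinded raters scored images stained for doublecortin (early neurons) or tyrosine hydroxylase (dopaminergic neurons) against untreated wells (0 = no change). Scores were averaged across repeats and both raters, and compounds averaging 2 or more were selected as hits for retesting.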
# Test system: ReNCell VM
# Assay: dopaminergic neuron differentiation score (TH+ cell fraction vs untreated, manual image score) (score (0 to 3)); higher = more TH+ dopaminergic neuron differentiation
# Details: library: Prestwick; 2 uM; 4 weeks; BDNF 10 ng/ml + GDNF 10 ng/ml
row,Compound,dopaminergic neuron differentiation score
1,O=C(c1ccccc1)c1ccc2n1CCC2C(=O)O (stereo not drawn) [Ketorolac tromethamine],inactive: 0
2,Cn1c(=O)c2c(ncn2CC(=O)O)n(C)c1=O [Acefylline],inactive: 0
3,CC(CNC1CCCCC1)OC(=O)c1ccccc1 (stereo not drawn) [Hexylcaine hydrochloride],inactive: 0
4,N#CC(c1ccc(Cl)cc1)c1c(Cl)cc(-n2ncc(=O)[nH]c2=O)cc1Cl (stereo not drawn) [Diclazuril],inactive: 0
5,CC(=O)OCC(=O)[C@@]1(O)CC[C@H]2[C@@H]3CCC4=CC(=O)CC[C@]4(C)[C@@]3(F)[C@@H](O)C[C@@]21C [Fludrocortisone acetate],inactive: 0
6,CCC(=O)OCC(=O)[C@@]1(OC(=O)CC)[C@@H](C)C[C@H]2[C@@H]3CCC4=CC(=O)C=C[C@]4(C)[C@@]3(Cl)[C@@H](O)C[C@@]21C [Beclomethasone dipropionate],inactive: 0
7,CC1(C)S[C@@H]2[C@H](NC(=O)[C@H](N)c3ccccc3)C(=O)N2[C@H]1C(=O)O [Ampicillin trihydrate],inactive: 0
8,CCCCC(CC)CN1CN(CC(CC)CCCC)CC(C)(N)C1 (stereo not drawn) [Hexetidine],inactive: 0

# From entry 1 as far as 2, as listed above:
row,Compound,dopaminergic neuron differentiation score
1,O=C(c1ccccc1)c1ccc2n1CCC2C(=O)O (stereo not drawn) [Ketorolac tromethamine],inactive: 0
2,Cn1c(=O)c2c(ncn2CC(=O)O)n(C)c1=O [Acefylline],inactive: 0
